Some of the results follow.
Experiments:
Assay in all cases: log2 fold change, soluble protein after heating vs DMSO (PISA); higher = thermal stabilisation; K562 lysate, 10 uM; active = over 0.2 and 3.5 SD of the protein, either way, in both replicates (recomputed)
vemurafenib = compound: CCCS(=O)(=O)Nc1ccc(F)c(C(=O)c2c[nH]c3ncc(-c4ccc(Cl)cc4)cc23)c1F [vemurafenib]
In short: (§1)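 K562 pellets were dounce-homogenised in PBS pH 7.4 containing 1 mM MgCl2, and the crude extract, at 1 mg/mL protein, was exposed to 10 μM compound for 30 min. Aliquots were heated for 3 min across 48°C-58°C, pooled, brought to 0.5% NP-40 at 4°C and spun at 21,000xg for 90 min, with the supernatant taken as soluble protein. TMTpro 16plex LC-MS/MS with equalised channel sums quantified that protein. Values are log-two fold changes in thermal stability relative to solvent controls, taken from duplicates.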

The chains behind the UniProt entries cited, without tags or fusion partners. Where a name states a change or a piece, a line headed by the entry shows the natural chain unless it says otherwise.
UniProt Q96QZ7: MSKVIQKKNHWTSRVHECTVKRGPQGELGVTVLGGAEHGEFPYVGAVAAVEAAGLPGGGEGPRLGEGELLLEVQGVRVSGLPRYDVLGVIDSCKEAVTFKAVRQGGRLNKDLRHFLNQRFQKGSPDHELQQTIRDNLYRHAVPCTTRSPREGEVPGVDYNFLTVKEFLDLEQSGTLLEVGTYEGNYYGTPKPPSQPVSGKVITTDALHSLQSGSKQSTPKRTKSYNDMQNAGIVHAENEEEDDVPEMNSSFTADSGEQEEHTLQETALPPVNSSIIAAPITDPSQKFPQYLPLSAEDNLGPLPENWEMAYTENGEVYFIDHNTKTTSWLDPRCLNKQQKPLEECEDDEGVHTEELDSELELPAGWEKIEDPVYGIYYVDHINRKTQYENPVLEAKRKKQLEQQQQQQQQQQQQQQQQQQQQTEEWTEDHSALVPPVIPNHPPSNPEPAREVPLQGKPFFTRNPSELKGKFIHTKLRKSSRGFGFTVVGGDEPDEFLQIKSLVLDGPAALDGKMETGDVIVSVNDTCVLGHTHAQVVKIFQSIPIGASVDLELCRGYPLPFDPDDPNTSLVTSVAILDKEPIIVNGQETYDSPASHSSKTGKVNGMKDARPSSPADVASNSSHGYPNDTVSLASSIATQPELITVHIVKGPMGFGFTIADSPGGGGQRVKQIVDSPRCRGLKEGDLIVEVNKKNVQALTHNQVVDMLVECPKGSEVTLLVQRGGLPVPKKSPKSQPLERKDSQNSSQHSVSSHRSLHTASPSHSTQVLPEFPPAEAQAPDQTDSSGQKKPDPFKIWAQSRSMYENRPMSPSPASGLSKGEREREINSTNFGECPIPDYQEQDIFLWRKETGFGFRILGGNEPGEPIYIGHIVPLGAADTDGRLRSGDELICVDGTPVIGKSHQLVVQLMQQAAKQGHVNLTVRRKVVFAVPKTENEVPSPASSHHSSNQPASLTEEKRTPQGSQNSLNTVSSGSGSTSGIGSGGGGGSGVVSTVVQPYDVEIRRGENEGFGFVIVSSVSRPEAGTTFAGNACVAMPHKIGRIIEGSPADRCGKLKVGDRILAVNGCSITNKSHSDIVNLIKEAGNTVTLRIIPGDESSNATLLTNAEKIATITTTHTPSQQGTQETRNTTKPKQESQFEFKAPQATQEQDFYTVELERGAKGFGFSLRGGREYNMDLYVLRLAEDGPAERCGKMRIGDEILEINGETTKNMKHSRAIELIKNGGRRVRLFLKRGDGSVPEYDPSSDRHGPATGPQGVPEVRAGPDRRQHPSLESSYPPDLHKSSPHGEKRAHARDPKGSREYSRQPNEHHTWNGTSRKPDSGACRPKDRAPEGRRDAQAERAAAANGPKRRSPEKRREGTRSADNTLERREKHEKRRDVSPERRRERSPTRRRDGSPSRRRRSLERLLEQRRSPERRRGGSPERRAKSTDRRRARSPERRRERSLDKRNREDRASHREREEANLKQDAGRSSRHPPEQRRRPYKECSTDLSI
UniProt Q13257, whole entry, looked up: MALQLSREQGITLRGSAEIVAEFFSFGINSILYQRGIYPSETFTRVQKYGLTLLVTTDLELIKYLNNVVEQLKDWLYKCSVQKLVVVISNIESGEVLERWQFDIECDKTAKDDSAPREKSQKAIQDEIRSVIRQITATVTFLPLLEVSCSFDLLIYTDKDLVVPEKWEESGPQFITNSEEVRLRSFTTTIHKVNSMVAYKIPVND
UniProt O43318: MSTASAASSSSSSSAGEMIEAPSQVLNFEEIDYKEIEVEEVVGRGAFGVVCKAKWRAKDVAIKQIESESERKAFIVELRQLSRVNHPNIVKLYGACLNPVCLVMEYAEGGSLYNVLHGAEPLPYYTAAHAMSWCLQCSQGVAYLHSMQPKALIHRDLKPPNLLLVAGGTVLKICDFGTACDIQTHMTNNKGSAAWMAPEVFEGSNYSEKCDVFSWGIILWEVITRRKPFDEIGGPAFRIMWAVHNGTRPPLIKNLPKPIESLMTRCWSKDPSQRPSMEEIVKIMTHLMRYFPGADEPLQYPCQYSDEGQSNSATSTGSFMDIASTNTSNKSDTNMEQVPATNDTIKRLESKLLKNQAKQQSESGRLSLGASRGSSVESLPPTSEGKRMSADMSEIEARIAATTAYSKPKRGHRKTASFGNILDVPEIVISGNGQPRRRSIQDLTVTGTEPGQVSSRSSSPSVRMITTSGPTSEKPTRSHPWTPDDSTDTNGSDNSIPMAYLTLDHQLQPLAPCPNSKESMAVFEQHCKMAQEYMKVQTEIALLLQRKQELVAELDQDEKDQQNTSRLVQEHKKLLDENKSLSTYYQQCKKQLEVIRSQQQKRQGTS
UniProt Q96S90: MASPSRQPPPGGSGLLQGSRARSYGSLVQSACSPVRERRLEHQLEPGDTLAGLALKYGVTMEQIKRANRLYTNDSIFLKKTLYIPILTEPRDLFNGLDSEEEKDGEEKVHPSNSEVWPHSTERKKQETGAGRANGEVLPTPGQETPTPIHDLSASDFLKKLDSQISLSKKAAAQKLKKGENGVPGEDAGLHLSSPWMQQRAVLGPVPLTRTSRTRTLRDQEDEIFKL
UniProt Q9HD34: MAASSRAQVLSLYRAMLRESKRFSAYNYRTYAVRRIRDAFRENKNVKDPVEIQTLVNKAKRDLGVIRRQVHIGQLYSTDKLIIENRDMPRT
UniProt P45985: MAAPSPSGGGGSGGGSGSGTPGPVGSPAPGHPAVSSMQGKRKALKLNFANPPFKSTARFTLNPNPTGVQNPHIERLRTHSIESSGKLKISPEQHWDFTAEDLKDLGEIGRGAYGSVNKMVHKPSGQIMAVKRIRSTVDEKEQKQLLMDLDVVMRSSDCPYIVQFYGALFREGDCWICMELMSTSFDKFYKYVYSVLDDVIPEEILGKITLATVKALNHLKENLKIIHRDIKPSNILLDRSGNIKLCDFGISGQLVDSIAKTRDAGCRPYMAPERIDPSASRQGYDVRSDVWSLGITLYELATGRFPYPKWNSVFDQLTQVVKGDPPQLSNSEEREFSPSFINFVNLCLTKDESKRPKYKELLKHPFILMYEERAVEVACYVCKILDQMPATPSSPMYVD
UniProt Q8WWC4: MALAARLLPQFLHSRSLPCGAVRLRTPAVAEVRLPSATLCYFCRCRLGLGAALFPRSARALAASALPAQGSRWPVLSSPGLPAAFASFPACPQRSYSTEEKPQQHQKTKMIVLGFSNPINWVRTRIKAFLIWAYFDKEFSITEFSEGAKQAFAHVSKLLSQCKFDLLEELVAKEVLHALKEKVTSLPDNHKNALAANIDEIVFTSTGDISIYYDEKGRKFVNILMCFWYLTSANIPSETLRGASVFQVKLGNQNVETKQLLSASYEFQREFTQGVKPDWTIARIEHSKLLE
UniProt O60476: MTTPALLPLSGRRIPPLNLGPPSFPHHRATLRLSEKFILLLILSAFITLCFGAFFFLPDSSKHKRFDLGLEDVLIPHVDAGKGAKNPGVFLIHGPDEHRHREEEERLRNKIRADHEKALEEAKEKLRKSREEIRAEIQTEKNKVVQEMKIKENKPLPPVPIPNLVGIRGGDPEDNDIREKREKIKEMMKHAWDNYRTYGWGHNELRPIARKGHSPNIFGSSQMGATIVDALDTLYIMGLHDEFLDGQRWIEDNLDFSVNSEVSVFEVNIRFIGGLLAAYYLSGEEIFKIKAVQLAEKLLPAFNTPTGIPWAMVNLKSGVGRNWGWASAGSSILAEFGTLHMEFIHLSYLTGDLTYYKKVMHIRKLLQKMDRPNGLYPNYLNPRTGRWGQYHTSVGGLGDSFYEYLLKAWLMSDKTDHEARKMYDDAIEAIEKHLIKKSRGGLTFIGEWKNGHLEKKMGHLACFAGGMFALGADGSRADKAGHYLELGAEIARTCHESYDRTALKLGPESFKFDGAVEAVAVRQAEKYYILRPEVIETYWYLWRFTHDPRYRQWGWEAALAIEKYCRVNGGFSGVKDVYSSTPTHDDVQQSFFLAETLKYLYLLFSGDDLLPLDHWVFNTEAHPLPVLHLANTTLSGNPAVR
UniProt Q9NX47: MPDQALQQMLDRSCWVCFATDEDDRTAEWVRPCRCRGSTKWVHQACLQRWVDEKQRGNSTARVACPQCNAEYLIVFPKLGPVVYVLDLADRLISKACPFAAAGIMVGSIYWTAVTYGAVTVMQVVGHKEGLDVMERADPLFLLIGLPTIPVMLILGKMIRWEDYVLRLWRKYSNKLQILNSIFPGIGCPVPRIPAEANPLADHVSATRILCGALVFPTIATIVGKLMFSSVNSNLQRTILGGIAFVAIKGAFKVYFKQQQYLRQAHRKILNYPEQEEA
UniProt Q8IZL2, whole entry, looked up: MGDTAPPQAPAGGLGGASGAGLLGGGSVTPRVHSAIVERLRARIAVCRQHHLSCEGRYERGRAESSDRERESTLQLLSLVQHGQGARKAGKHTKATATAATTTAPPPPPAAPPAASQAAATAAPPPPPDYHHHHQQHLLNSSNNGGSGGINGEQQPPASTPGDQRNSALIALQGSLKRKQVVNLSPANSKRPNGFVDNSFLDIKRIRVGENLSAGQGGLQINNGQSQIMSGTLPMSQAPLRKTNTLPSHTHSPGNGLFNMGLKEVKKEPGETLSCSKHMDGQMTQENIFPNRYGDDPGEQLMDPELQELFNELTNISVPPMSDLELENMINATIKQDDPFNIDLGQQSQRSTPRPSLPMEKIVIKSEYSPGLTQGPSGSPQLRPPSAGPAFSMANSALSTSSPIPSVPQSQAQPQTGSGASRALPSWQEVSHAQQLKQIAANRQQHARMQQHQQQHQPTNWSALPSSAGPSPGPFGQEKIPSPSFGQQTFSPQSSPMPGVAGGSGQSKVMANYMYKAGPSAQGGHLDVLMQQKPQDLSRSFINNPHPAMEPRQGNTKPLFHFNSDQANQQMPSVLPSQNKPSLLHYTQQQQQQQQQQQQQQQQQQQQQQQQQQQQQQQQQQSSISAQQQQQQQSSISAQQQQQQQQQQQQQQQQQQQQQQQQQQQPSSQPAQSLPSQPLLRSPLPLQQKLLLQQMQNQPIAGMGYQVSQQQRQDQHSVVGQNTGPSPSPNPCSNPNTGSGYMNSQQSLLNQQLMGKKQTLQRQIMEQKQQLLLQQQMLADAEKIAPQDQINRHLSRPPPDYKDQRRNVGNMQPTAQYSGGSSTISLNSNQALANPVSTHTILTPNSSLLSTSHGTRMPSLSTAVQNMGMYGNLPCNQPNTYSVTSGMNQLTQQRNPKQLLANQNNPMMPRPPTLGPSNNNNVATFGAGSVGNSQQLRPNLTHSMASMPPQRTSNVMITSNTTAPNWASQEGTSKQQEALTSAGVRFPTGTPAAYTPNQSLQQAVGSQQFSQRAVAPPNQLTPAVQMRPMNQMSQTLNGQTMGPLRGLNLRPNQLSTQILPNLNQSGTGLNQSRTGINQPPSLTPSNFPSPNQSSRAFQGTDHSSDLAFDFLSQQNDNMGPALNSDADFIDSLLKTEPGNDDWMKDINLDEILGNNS
UniProt Q16539, whole entry, looked up: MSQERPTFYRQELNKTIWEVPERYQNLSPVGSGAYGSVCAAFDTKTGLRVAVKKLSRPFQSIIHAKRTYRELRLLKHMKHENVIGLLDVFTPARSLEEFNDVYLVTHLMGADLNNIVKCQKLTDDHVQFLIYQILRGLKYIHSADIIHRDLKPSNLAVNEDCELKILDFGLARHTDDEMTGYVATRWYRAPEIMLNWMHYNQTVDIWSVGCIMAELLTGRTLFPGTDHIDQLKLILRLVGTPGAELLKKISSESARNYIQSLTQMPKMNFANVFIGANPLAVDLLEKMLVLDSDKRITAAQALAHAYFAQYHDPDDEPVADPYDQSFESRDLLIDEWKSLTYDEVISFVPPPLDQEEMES
UniProt P20645: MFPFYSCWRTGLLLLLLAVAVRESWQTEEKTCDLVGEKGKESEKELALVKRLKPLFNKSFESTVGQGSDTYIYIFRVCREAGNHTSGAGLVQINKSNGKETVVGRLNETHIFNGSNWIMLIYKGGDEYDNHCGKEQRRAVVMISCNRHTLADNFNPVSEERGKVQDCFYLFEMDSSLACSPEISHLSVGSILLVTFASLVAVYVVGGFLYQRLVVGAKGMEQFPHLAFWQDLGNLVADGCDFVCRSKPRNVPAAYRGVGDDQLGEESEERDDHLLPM

[1] = compound: CCCS(=O)(=O)Nc1ccc(F)c(C(=O)c2c[nH]c3ncc(Cl)cc23)c1F
In short: as §1

barasertib = compound: CCN(CCCOc1ccc2c(Nc3cc(CC(=O)Nc4cccc(F)c4)[nH]n3)ncnc2c1)CCOP(=O)(O)O [barasertib]
In short: as §1

[2] = compound: CC[C@@H]1C(=O)N(C)c2cnc(Nc3ccc(C(=O)NC4CCN(C)CC4)cc3OC)nc2N1C1CCCC1
In short: as §1

volasertib = compound: CC[C@@H]1C(=O)N(C)c2cnc(Nc3ccc(C(=O)N[C@H]4CC[C@H](N5CCN(CC6CC6)CC5)CC4)cc3OC)nc2N1C(C)C [volasertib]
In short: as §1

[3] = compound: CCn1c(C(=O)N(C2CC2)C2CC2)cc2c3c(ncn3C)c(Nc3cc(C)n(C)n3)nc21
In short: as §1

[4] = compound: CCn1cc(-c2ccnc3[nH]c(-c4cccc(CN(C)C)c4)cc23)c(-c2ccc(NC(=O)N(C)C)cc2)n1
In short: as §1

[5] = compound: CN1CCC(CNc2ccc3ncc(-c4cccc(OC(F)(F)F)c4)n3n2)CC1
In short: as §1

saracatinib = compound: CN1CCN(CCOc2cc(OC3CCOCC3)c3c(Nc4c(Cl)ccc5c4OCO5)ncnc3c2)CC1 [saracatinib]
In short: as §1

sotrastaurin = compound: CN1CCN(c2nc(C3=C(c4c[nH]c5ccccc45)C(=O)NC3=O)c3ccccc3n2)CC1 [sotrastaurin]
In short: as §1

alvocidib = compound: CN1CC[C@H](c2c(O)cc(O)c3c(=O)cc(-c4ccccc4Cl)oc23)[C@H](O)C1 [alvocidib]
In short: as §1

Tubastatin A = compound: CN1CCc2c(c3ccccc3n2Cc2ccc(C(=O)NO)cc2)C1 [Tubastatin A]
In short: as §1

[6] = compound: CNC(=O)C1=CC=CC=C1NC2=NC(=NC=C2Cl)NC3=C(C=C(C=C3)N4CCOCC4)OC
In short: as §1

defactinib = compound: CNC(=O)c1ccc(Nc2ncc(C(F)(F)F)c(NCc3nccnc3N(C)S(C)(=O)=O)n2)cc1 [defactinib]
In short: as §1

[7] = compound: CNc1nc(-c2ccc3c(N)n[nH]c3c2)cc(N2C[C@@H](C(=O)NC3CCCCC3)CC[C@H]2C)n1
In short: as §1

encorafenib = compound: COC(=O)N[C@@H](C)CNc1nccc(-c2cn(C(C)C)nc2-c2cc(Cl)cc(NS(C)(=O)=O)c2F)n1 [encorafenib]
In short: as §1

[8] = compound: COC(=O)[C@H](CCSC)NC(=O)C1=C(C=C(C=C1)NC[C@H](CS)N)C2=CC=CC=C2
In short: as §1

alisertib = compound: COc1cc(Nc2ncc3c(n2)-c2ccc(Cl)cc2C(c2c(F)cccc2OC)=NC3)ccc1C(=O)O [alisertib]
In short: as §1

[9] = compound: COc1cc2nc(-c3cc(F)ccc3O)nc(N[C@@H]3CNC[C@H]3C(C)(C)O)c2cc1OC
In short: as §1

gefitinib = compound: COc1cc2ncnc(Nc3ccc(F)c(Cl)c3)c2cc1OCCCN1CCOCC1 [gefitinib]
In short: as §1

Measured: log2 fold change

MAGI1 isoform 6 (UniProt Q96QZ7)
inactive: vemurafenib 0.01 | [1] 0.035 | barasertib 0.032 | [2] -0.033 | volasertib 0.002 | [3] -0.024 | [4] 0.023 | [5] 0.036 | saracatinib -0.011 | sotrastaurin 0.006 | alvocidib -0.137 | Tubastatin A 0.026 | [6] -0.055 | defactinib -0.009 | [7] 0.038 | encorafenib -0.002 | [8] -0.003 | alisertib 0.033 | [9] 0.008 | gefitinib 0.012

MAD2L1 (UniProt Q13257)
inactive: vemurafenib -0.017 | [1] 0 | barasertib 0.027 | [2] -0.024 | volasertib 0.031 | [3] 0.023 | [4] -0.207 | [5] 0.079 | saracatinib 0.007 | sotrastaurin 0.017 | alvocidib -0.07 | Tubastatin A 0.008 | [6] 0.027 | defactinib -0.029 | [7] 0.007 | encorafenib 0.007 | [8] 0.001 | alisertib 0.022 | [9] 0.016 | gefitinib 0.018

MALSU1 (UniProt Q96EH3)
inactive: vemurafenib 0.065 | [1] 0.012 | barasertib 0.07 | [2] 0.136 | volasertib -0.015 | [3] 0 | [4] -0.028 | [5] -0.014 | saracatinib -0.073 | sotrastaurin 0.014 | alvocidib -0.043 | Tubastatin A 0.029 | [6] 0 | defactinib -0.007 | [7] 0.041 | encorafenib 0.075 | [8] -0.082 | alisertib -0.247 | [9] 0.005 | gefitinib 0.066

MAP3K7 (UniProt O43318)
inactive: vemurafenib 0.018 | [1] 0.024 | barasertib 0.011 | [2] 0.027 | volasertib -0.038 | [3] 0.009 | [4] 0.148 | [5] -0.011 | saracatinib 0.046 | sotrastaurin -0.003 | alvocidib 0.004 | Tubastatin A -0.023 | [6] 0.047 | defactinib 0.014 | [7] 0.061 | encorafenib 0.024 | [8] -0.036 | alisertib 0.014 | [9] 0.01 | gefitinib 0

MAP1LC3B2 (UniProt A6NCE7)
inactive: vemurafenib 0.014 | [1] -0.017 | barasertib 0.035 | [2] -0.031 | volasertib 0 | [3] -0.022 | [4] 0.032 | [5] 0.011 | saracatinib -0.01 | sotrastaurin 0.008 | alvocidib 0.014 | Tubastatin A 0.01 | [6] -0.04 | defactinib 0.024 | [7] 0.015 | encorafenib -0.046 | [8] -0.018 | alisertib -0.011 | [9] 0.008 | gefitinib 0.017

LYSMD1 (UniProt Q96S90)
inactive: vemurafenib 0.007 | [1] 0.017 | barasertib 0.01 | [2] 0.026 | volasertib 0.047 | [3] -0.001 | [4] -0.006 | [5] 0.037 | saracatinib 0.089 | sotrastaurin 0.01 | alvocidib -0.031 | Tubastatin A 0.022 | [6] 0.028 | defactinib 0.021 | [7] 0.052 | encorafenib 0.018 | [8] -0.061 | alisertib 0.052 | [9] -0.017 | gefitinib 0.018

LYRM4 (UniProt Q9HD34)
inactive: vemurafenib 0.026 | [1] 0.015 | barasertib -0.04 | [2] -0.051 | volasertib 0.021 | [3] 0.03 | [5] -0.035 | saracatinib 0.007 | sotrastaurin -0.05 | alvocidib 0.013 | Tubastatin A 0.068 | [6] -0.042 | defactinib 0 | [7] 0.036 | encorafenib -0.008 | [8] 0 | alisertib 0.007 | [9] 0 | gefitinib 0.008
active: [4] 0.715

MAP2K4 isoform 2 (UniProt P45985)
inactive: [1] 0.243 | barasertib 0.09 | [2] -0.127 | volasertib -0.01 | [3] 0.04 | [5] -0.063 | saracatinib -0.063 | sotrastaurin 0.002 | alvocidib 0.137 | Tubastatin A -0.08 | [6] 0.081 | defactinib 0.013 | [7] 0.061 | encorafenib 0.122 | [8] 0.087 | alisertib -0.069 | [9] -0.022 | gefitinib -0.032
active: vemurafenib 0.601 | [4] 0.936

MAIP1 (UniProt Q8WWC4)
inactive: vemurafenib 0.058 | [1] 0.038 | barasertib 0.018 | [2] -0.088 | volasertib 0.012 | [3] -0.038 | [4] -0.02 | [5] -0.184 | saracatinib 0.041 | sotrastaurin 0.007 | alvocidib 0.021 | Tubastatin A -0.126 | [6] 0.014 | defactinib 0.022 | [7] -0.003 | encorafenib -0.046 | [8] -0.02 | alisertib 0.011 | [9] -0.098 | gefitinib -0.015

MAN1A2 (UniProt O60476)
inactive: vemurafenib -0.02 | [1] 0.008 | barasertib 0.044 | [2] 0.039 | volasertib 0.002 | [3] -0.014 | [4] 0.144 | [5] -0.098 | saracatinib -0.006 | sotrastaurin 0.041 | alvocidib 0.078 | Tubastatin A 0.095 | [6] 0.012 | defactinib -0.025 | [7] -0.003 | encorafenib 0.045 | [8] -0.013 | alisertib -0.06 | [9] 0.043 | gefitinib -0.023

LYZ (UniProt P61626)
inactive: vemurafenib 0.104 | [1] 0.629 | barasertib 0.412 | [2] 0 | volasertib -0.075 | [3] -0.321 | [4] 0.692 | [5] -0.774 | saracatinib -0.084 | sotrastaurin -0.254 | alvocidib -0.027 | Tubastatin A 0.607 | [6] 0.321 | defactinib 0.043 | [7] -0.262 | encorafenib -0.229 | [8] 0.854 | alisertib 0.018 | [9] 0.594 | gefitinib -0.011

MARCHF5 (UniProt Q9NX47)
inactive: vemurafenib 0.019 | [1] 0.019 | barasertib 0.026 | [2] 0.089 | volasertib 0.024 | [3] -0.068 | [4] -0.106 | [5] 0.044 | saracatinib 0.068 | sotrastaurin -0.022 | alvocidib -0.045 | Tubastatin A 0.038 | [6] 0.004 | defactinib -0.009 | [7] 0.025 | encorafenib -0.026 | [8] 0.074 | alisertib 0.062 | [9] -0.006 | gefitinib 0

MAML2 (UniProt Q8IZL2)
inactive: vemurafenib 0.016 | [1] 0.111 | barasertib 0.099 | [2] 0.19 | volasertib 0.119 | [3] 0.029 | [4] 0.042 | [5] -0.029 | saracatinib -0.211 | sotrastaurin -0.043 | alvocidib 0.035 | Tubastatin A 0.011 | [6] 0.04 | defactinib 0.007 | [7] 0.134 | encorafenib 0.151 | [8] -0.013 | alisertib 0.026 | [9] 0.078 | gefitinib 0.071

Quoted from above (three entries):
MAN1A2 (UniProt O60476)
inactive: vemurafenib -0.02 | [1] 0.008 | barasertib 0.044 | [2] 0.039 | volasertib 0.002 | [3] -0.014 | [4] 0.144 | [5] -0.098 | saracatinib -0.006 | sotrastaurin 0.041 | alvocidib 0.078 | Tubastatin A 0.095 | [6] 0.012 | defactinib -0.025 | [7] -0.003 | encorafenib 0.045 | [8] -0.013 | alisertib -0.06 | [9] 0.043 | gefitinib -0.023

LYZ (UniProt P61626)
inactive: vemurafenib 0.104 | [1] 0.629 | barasertib 0.412 | [2] 0 | volasertib -0.075 | [3] -0.321 | [4] 0.692 | [5] -0.774 | saracatinib -0.084 | sotrastaurin -0.254 | alvocidib -0.027 | Tubastatin A 0.607 | [6] 0.321 | defactinib 0.043 | [7] -0.262 | encorafenib -0.229 | [8] 0.854 | alisertib 0.018 | [9] 0.594 | gefitinib -0.011

MARCHF5 (UniProt Q9NX47)
inactive: vemurafenib 0.019 | [1] 0.019 | barasertib 0.026 | [2] 0.089 | volasertib 0.024 | [3] -0.068 | [4] -0.106 | [5] 0.044 | saracatinib 0.068 | sotrastaurin -0.022 | alvocidib -0.045 | Tubastatin A 0.038 | [6] 0.004 | defactinib -0.009 | [7] 0.025 | encorafenib -0.026 | [8] 0.074 | alisertib 0.062 | [9] -0.006 | gefitinib 0

More results.

MAP2K2 (UniProt P36507)
inactive: vemurafenib 0.224 | [1] 0.184 | barasertib 0.026 | [2] -0.076 | volasertib -0.089 | [3] 0.008 | [4] 0.252 | [5] -0.047 | saracatinib 0.093 | sotrastaurin -0.002 | alvocidib 0.022 | Tubastatin A -0.026 | [6] 0.198 | defactinib 0.036 | [7] 0.015 | encorafenib -0.046 | [8] -0.006 | alisertib -0.013 | [9] 0.009 | gefitinib -0.013

MAPK14 isoform 2 (UniProt Q16539)
inactive: vemurafenib 0.189 | [1] 0.046 | barasertib 0.079 | [2] -0.076 | volasertib -0.078 | [3] 0.003 | [4] 0.303 | [5] -0.101 | saracatinib 0.192 | sotrastaurin -0.029 | alvocidib 0.154 | Tubastatin A -0.121 | [6] 0.299 | defactinib 0.01 | [7] -0.041 | encorafenib 0.454 | [8] 0.257 | alisertib -0.065 | [9] -0.004 | gefitinib 0.144

M6PR (UniProt P20645)
inactive: vemurafenib 0.003 | [1] 0.013 | barasertib -0.022 | [2] 0.051 | volasertib -0.013 | [3] -0.007 | [4] 0.014 | [5] 0.018 | saracatinib 0.007 | sotrastaurin 0.081 | alvocidib -0.031 | Tubastatin A 0.076 | [6] 0.004 | defactinib -0.061 | [7] -0.004 | encorafenib -0.026 | [8] -0.056 | alisertib -0.018 | [9] 0.014 | gefitinib 0.032

Reference: the supplement of paper PMC10849652
